In patent publication US8455495B2, “Pyridazino-pyridinone compounds and methods of use” (Amgen Inc., priority 2008, dated 2013):
Some results were stated once for a whole list of compounds, not compound by compound.

By UniProt entry, the sequences of proteins in these tests, tags left out.
UniProt Q16539, whole entry: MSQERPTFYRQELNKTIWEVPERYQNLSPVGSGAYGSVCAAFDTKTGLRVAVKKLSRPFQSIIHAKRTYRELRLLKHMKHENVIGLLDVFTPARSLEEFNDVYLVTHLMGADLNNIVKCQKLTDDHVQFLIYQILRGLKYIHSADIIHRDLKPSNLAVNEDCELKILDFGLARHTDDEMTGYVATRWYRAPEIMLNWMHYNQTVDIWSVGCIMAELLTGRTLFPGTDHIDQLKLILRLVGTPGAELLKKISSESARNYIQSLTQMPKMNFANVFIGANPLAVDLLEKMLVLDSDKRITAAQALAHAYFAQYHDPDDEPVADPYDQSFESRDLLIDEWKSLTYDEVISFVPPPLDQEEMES

Biological target: recombinant human p38α (Homo sapiens, UniProt Q16539)
Test: Purified and activated recombinant human p38α HTRF assay
Assay type: biochemical
Conditions: 1 nM p38α, 50 μM ATP, GST-ATF2 substrate, read-out: p38a IC50
Method: Purified and Activated Recombinant Human p38α Assay Kinase Reaction Buffer: […] HTRF Detection Buffer: […] Serial Dilution of Compounds: […] Columns 6 and 12 (HI controls and LO controls respectively) in the drug plate were reserved as controls and contained only DMSO. Kinase Reaction: […] See table below for actual concentrations. In the absence of substrate, the background was measured as LO control. […] Assay Reagent Concentrations: […] HTRF Detection: […] After 60 minutes incubation at room temperature, the assay plate was read in a Discovery Plate Reader. The wells were excited with coherent 320 nm light and the ratio of delayed ([…] post excitation) emissions at […] (native europium fluorescence) and 665 nm (europium fluorescence transferred to allophycocyanin-an index of substrate phosphorylation) was determined (Park et al, 1999). Data Analysis: […] Data (consisting of POC and inhibitor concentration in μM) was fitted to a 4-parameter equation ([…]))), where A is the minimum y (POC) value, B is the maximum y (POC), C is the x (compound concentration) at the point of inflection and D is the slope factor, using a Levenburg-Marquardt non-linear regression algorithm. The inhibition constant (Ki) of the inhibitor was estimated from the IC50 (compound concentration at the point of inflection C) using the Cheng-Prussof equation: […] All results were expressed as the mean±the standard error of the mean. Data acquisition and non-linear regression algorithms were performed using Activity Base v5.2 and XL-fit software v4.1 respectively. All data was archived using Activity Base v5.2 software.

| SMILES | IC50 [µM] |
| --- | --- |
| Cc1ccc(C(=O)NC2CC2)cc1-c1cc2cnnc(-c3ccc(F)cc3F)c2n(C)c1=O [Example 1, N-cyclopropyl-3-(8-(2,4-difluorophenyl)-1-methyl-2-oxo-1,2-dihydropyrido[3,2-d]pyridazin-3-yl)-4-methylbenzamide] | ≤ 0.1 |
| Cc1ccc(C(N)=O)cc1-c1cc2cnnc(-c3ccc(F)cc3F)c2n(C)c1=O [Example 2, 3-(8-(2,4-difluorophenyl)-1-methyl-2-oxo-1,2-dihydropyrido[3,2-d]pyridazin-3-yl)-4-methylbenzamide] | ≤ 0.1 |
| Cc1c(F)cc(C(=O)NC2CC2)cc1-c1cc2cnnc(-c3ccc(F)cc3F)c2n(C)c1=O [Example 3, N-cyclopropyl-3-(8-(2,4-difluorophenyl)-1-methyl-2-oxo-1,2-dihydropyrido[3,2-d]pyridazin-3-yl)-5-fluoro-4-methylbenzamide] | ≤ 0.1 |
| Cc1ccc(C(=O)NC2CC2)cc1-c1cc2cnnc(-c3ccccc3C)c2n(C)c1=O [Example 6, N-cyclopropyl-4-methyl-3-(1-methyl-2-oxo-8-o-tolyl-1,2-dihydropyrido[3,2-d]pyridazin-3-yl)benzamide] | ≤ 0.1 |
| Cc1ccccc1-c1nncc2cc(-c3cc(C(=O)NC4CC4)cc(F)c3C)c(=O)n(C)c12 [Example 7, N-cyclopropyl-3-fluoro-4-methyl-5-(1-methyl-2-oxo-8-o-tolyl-1,2-dihydropyrido[3,2-d]pyridazin-3-yl)benzamide] | ≤ 0.1 |
| Cc1ccc(C(=O)NC2CC2)cc1-c1cc2cnnc(-c3ccccc3Cl)c2n(C)c1=O [Example 8, 3-(8-(2-chlorophenyl)-1-methyl-2-oxo-1,2-dihydropyrido[3,2-d]pyridazin-3-yl)-N-cyclopropyl-4-methylbenzamide] | ≤ 0.1 |
